Test results from publication PMC2644779.
No constants are given. Whether binding was seen depends on the method and setting. For part of these data: In cells and extracts the contact can be indirect. Some results given as binding are weak or reduced against the parent protein; the word gives no strength. For part of these data: Tags and fused reporters may be left off the sequences shown.

Tests used:
[1] = molecular target: E417G-PINK1, full length, C-terminally tagged (human) (UniProt Q9BXM7); test: co-IP; repeat of the co-IP experiments in COS and HeLa cells, data not shown
[2] = molecular target: E417G-PINK1, full length, C-terminally tagged (human) (UniProt Q9BXM7); test: co-IP; HEK293 cells co-transfected with a pair of differently tagged PINK1 constructs; lysis buffer 50 mM Tris pH 7.4, 150 mM NaCl, 1 mM EDTA, 0.1% Triton; IP by one tag (anti-Flag, anti-V5 or anti-GFP) at 4°C, Western blot for the other tag
[3] = molecular target: L347P-PINK1, full length, C-terminally tagged (human) (UniProt Q9BXM7); test: co-IP; repeat of the co-IP experiments in COS and HeLa cells, data not shown
[4] = molecular target: L347P-PINK1, full length, C-terminally tagged (human) (UniProt Q9BXM7); test: co-IP; HEK293 cells co-transfected with a pair of differently tagged PINK1 constructs; lysis buffer 50 mM Tris pH 7.4, 150 mM NaCl, 1 mM EDTA, 0.1% Triton; IP by one tag (anti-Flag, anti-V5 or anti-GFP) at 4°C, Western blot for the other tag
[5] = molecular target: PINK1(1-509)-V5 (human) (UniProt Q9BXM7); test: co-IP; repeat of the co-IP experiments in COS and HeLa cells, data not shown
[6] = molecular target: PINK1(1-525)-V5 (human) (UniProt Q9BXM7); test: as above
[7] = molecular target: PINK1(1-509)-V5 (human) (UniProt Q9BXM7); test: co-IP; HEK293 cells co-transfected with a pair of differently tagged PINK1 constructs; lysis buffer 50 mM Tris pH 7.4, 150 mM NaCl, 1 mM EDTA, 0.1% Triton; IP by one tag (anti-Flag, anti-V5 or anti-GFP) at 4°C, Western blot for the other tag
[8] = molecular target: PINK1(1-525)-V5 (human) (UniProt Q9BXM7); test: as above
[9] = molecular target: T1, wild type PINK1 (PTEN induced kinase 1), full length, C-terminally tagged (human), Q9BXM7; test: as above; settings: remark: other sources report otherwise
T1 chain: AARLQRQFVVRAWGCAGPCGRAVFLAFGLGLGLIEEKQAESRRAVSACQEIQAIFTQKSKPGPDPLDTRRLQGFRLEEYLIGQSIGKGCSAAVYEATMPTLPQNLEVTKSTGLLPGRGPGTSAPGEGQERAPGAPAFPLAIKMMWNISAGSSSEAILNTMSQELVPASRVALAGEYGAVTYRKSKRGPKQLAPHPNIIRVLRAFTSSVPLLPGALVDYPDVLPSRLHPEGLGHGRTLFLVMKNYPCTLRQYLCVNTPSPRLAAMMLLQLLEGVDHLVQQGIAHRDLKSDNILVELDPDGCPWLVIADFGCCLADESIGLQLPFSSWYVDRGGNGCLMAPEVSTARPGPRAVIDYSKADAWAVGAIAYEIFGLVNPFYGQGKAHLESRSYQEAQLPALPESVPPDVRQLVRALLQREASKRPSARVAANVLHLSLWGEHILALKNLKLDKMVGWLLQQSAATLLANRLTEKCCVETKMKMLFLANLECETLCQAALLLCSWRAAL

[10] = molecular target: T1, wild type PINK1 (PTEN induced kinase …); test: co-IP; repeat of the co-IP experiments in COS and HeLa cells, data not shown; settings: remark: other sources report otherwise
[11] = molecular target: T2, endogenous PINK1 (human (endogenous in SH-SY5Y)), Q9BXM7; test: sucrose gradient sedimentation; mitochondrial proteins of SH-SY5Y cells (infected with PINK1 adenoviruses, or endogenous PINK1) sub-fractionated on a 15% to 35% discontinuous sucrose gradient, fractions 1-10, SDS-PAGE and Western blot; settings: remark: other sources report otherwise
T2 chain: T1 chain

Measured: binding

E417G-PINK1, full length, C-terminally tagged (from UniProt Q9BXM7 78-581)
binds: [1] | [2]

L347P-PINK1, full length, C-terminally tagged (from UniProt Q9BXM7 78-581)
binds: [3] | [4]

wild type PINK1 (PTEN induced kinase 1), full length, C-terminally tagged (from UniProt Q9BXM7 78-581)
not listed: [9] | [10] | [11]
binds: all other assays above

B1: wild type PINK1 (PTEN induced kinase 1), full length, C-terminally tagged, Q9BXM7 78-581 (protein)
chain: T1 chain
binds: [9] | [10]

B2: endogenous PINK1, Q9BXM7 78-581 (protein)
chain: T1 chain
binds: [11]
